Results from the supplement of paper PMC10331698.
± gives the standard deviation of the averaged measurements. Most values lie at the level of the controls, where differences are scatter.

Columns and labels:
Test in all cases: level (log10 ratio to DMSO vehicle control); higher = higher biomarker level / cell amount than vehicle control
[1] = compound: C=C(C)C(=O)OCCC(F)(F)C(F)(F)C(F)(F)C(F)(F)C(F)(C(F)(F)F)C(F)(F)F [(Perfluoro-5-methylhexyl)ethyl 2-methylprop-2-enoate]; conditions: in DMSO
Method: (§1)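 BioMAP Diversity Plus panel of 12 human primary cell co-culture systems (3C, 4H, LPS, SAg, BT, BF4T, BE3C, CASM3C, HDF3CGF, KF3CT, MyoF, Mphg). Compounds were added 1 h before stimulation and left for 24 h (MyoF 48 h; BT 72 h for soluble read-outs or 6 d for IgG). Biomarkers were read by ELISA, cytotoxicity by SRB, PBMC viability and proliferation by Alamar Blue. Each well value was divided by the mean of 8 DMSO control wells on the same plate and log10 transformed; duplicate blinded samples were tested at 4 concentrations.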

[2] = compound: C=C(C)C(=O)OCCC(F)(F)C(F)(F)C(F)(F)C(F)(F)C(F)(F)C(F)(F)C(F)(F)C(F)(F)F [8:2 Fluorotelomer methacrylate]; conditions: in DMSO
Method: as §1

[3] = compound: COC(=O)CCC(F)(F)C(F)(F)C(F)(F)C(F)(F)F [Methyl 2H,2H,3H,3H-perfluoroheptanoate]; conditions: 2200 nM; in DMSO
Method: as §1

[4] = compound: FC(F)(F)C(F)(F)C(F)(F)C(F)(F)C(F)(F)CCI [1-Iodo-1H,1H,2H,2H-perfluoroheptane]; conditions: 2200 nM; in DMSO
Method: as §1

[5] = compound: NC(=O)C(F)(F)C(F)(F)C(F)(F)C(F)(F)C(N)=O [Octafluoroadipamide]; conditions: 2200 nM; in DMSO
Method: as §1

[6] = compound: NC(=O)C(F)(F)C(F)(F)C(F)(F)C(F)(F)F [Nonafluoropentanamide]; conditions: 2200 nM; in DMSO
Method: as §1

[7] = compound: NS(=O)(=O)C(F)(F)C(F)(F)C(F)(F)C(F)(F)C(F)(F)C(F)(F)F [Perfluorohexanesulfonamide]; conditions: 2200 nM; in DMSO
Method: as §1

[8] = compound: O=C(O)C(F)(F)C(F)(F)C(=O)O [Tetrafluorosuccinic acid]; conditions: 2200 nM; in DMSO
Method: as §1

[9] = compound: O=C(O)C(F)(F)C(F)(F)C(F)(F)C(F)(F)C(F)(F)C(F)(F)C(F)(F)C(F)(F)Cl [9-Chloro-perfluorononanoic acid]; conditions: in DMSO
Method: as §1

[10] = compound: O=C(O)CCC(F)(F)C(F)(F)C(F)(F)C(F)(F)C(F)(F)F [2H,2H,3H,3H-Perfluorooctanoic acid]; conditions: 2200 nM; in DMSO
Method: as §1

[11] = compound: O=S(=O)(O)C(F)(F)C(F)(F)OC(F)(F)C(F)(F)F [Perfluoro(2-ethoxyethane)sulfonic acid]; conditions: 2200 nM; in DMSO
Method: as §1

[12] = compound: O=S(=O)(O)CCC(F)(F)C(F)(F)C(F)(F)C(F)(F)C(F)(F)C(F)(F)F [6:2 Fluorotelomer sulfonic acid]; conditions: in DMSO
Method: as §1

[13] = compound: OC(C(F)(F)F)(C(F)(F)F)C(O)(C(F)(F)F)C(F)(F)F [Perfluoropinacol]; conditions: in DMSO
Method: as §1

[14] = compound: OCCC(F)(F)C(F)(F)C(F)(F)C(F)(F)F [4:2 Fluorotelomer alcohol]; conditions: 2200 nM; in DMSO
Method: as §1

Row | Test System | level (log10) ([1]; 740 nM) | level (log10) ([1]; 2200 nM) | level (log10) ([1]; 6700 nM) | level (log10) ([1]; 20000 nM) | level (log10) ([2]; 740 nM) | level (log10) ([2]; 2200 nM) | level (log10) [3] | level (log10) [4] | level (log10) [5] | level (log10) [6] | level (log10) [7] | level (log10) [8] | level (log10) ([9]; 2200 nM) | level (log10) ([9]; 6700 nM) | level (log10) ([9]; 20000 nM) | level (log10) [10] | level (log10) [11] | level (log10) ([12]; 2200 nM) | level (log10) ([12]; 6700 nM) | level (log10) ([12]; 20000 nM) | level (log10) ([12]; 60000 nM) | level (log10) ([13]; 2200 nM) | level (log10) ([13]; 6700 nM) | level (log10) ([13]; 20000 nM) | level (log10) [14]
1 | HDF3CGF:PAI-I | -0.0325 ± 0.028 | -0.039 ± 0.0085 | -0.037 ± 0.0028 | -0.0385 ± 0.019 | 0.026 ± 0.082 | 0.001 ± 0.052 | 0.0145 ± 0.015 | -0.0065 ± 0.039 | 0.0225 ± 0.059 | -0.014 ± 0.069 | 0.024 ± 0.014 | -0.0075 ± 0.015 | 0.041 ± 0.073 | 0.0685 ± 0.033 | 0.0245 ± 0.015 | 0.021 ± 0.03 | 0.0215 ± 0.033 | 0.004 ± 0.024 | 0.005 ± 0.0042 | -0.0015 ± 0.0035 | -0.01 ± 0.011 | 0.0105 ± 0.0078 | -0.0325 ± 0.012 | -0.117 ± 0.0021 | -0.0175 ± 0.13
2 | BE3C:CD87/uPAR | -0.0035 ± 0.032 | 0.003 ± 0.027 | 0.0035 ± 0.016 | 0.0165 ± 0.035 | 0.0235 ± 0.0064 | -0.0115 ± 0.028 | -0.0155 ± 0.039 | -0.0145 ± 0.013 | -0.0205 ± 0.012 | 0.021 ± 0.03 | 0.0235 ± 0.043 | 0.016 ± 0.0014 | 0.0155 ± 0.061 | 0.0445 ± 0.0021 | -0.0005 ± 0.039 | 0.0125 ± 0.015 | 0.022 ± 0.0028 | 0.0125 ± 0.005 | 0.003 ± 0.0014 | -0.0065 ± 0.011 | 0.0235 ± 0.018 | -0.0165 ± 0.021 | -0.0675 ± 0.019 | -0.231 ± 0.016 | 0.0215 ± 0.054
3 | lMphg:CD40 | 0.0275 ± 0.023 | 0.0145 ± 0.0035 | 0.0035 ± 0.011 | -0.0085 ± 0.0078 | -0.0195 ± 0.03 | -0.0115 ± 0.00071 | -0.0155 ± 0.00071 | 0.005 ± 0.04 | 0.003 ± 0.014 | 0.0195 ± 0.042 | 0.012 ± 0.0071 | -0.015 ± 0.0085 | -0.02 ± 0.0014 | -0.0165 ± 0.0064 | -0.0155 ± 0.005 | -0.005 ± 0.016 | -0.002 ± 0.0014 | -0.011 ± 0.011 | -0.017 ± 0.011 | -0.022 ± 0.028 | -0.05 ± 0.033 | -0.0085 ± 0.046 | -0.0265 ± 0.019 | -0.202 ± 0.03 | 0.0065 ± 0.0078
4 | BF4T:CD54/ICAM-1 | -0.005 ± 0.0014 | -0.013 ± 0.0057 | -0.0065 ± 0.015 | -0.017 ± 0.0099 | 0.0075 ± 0.023 | -0.0085 ± 0.012 | -0.0255 ± 0.018 | -0.0045 ± 0.0021 | -0.004 ± 0.042 | 0.0045 ± 0.005 | -0.0045 ± 0.011 | -0.0155 ± 0.011 | -0.024 ± 0.014 | -0.0085 ± 0.0021 | -0.0355 ± 0.0064 | -0.004 ± 0.025 | 0.013 ± 0.017 | 0.0065 ± 0.023 | -0.0115 ± 0.00071 | -0.015 ± 0.021 | -0.0095 ± 0.018 | 0.0045 ± 0.005 | -0.0015 ± 0.011 | -0.018 ± 0.0028 | 0.0005 ± 0.0092
5 | LPS:CD142/Tissue Factor | 0.142 ± 0.039 | 0.0055 ± 0.0092 | 0.032 ± 0.014 | 0.006 ± 0.014 | 0.03 ± 0.048 | 0.0135 ± 0.061 | 0.005 ± 0.044 | 0.009 ± 0.0042 | -0.0295 ± 0.083 | 0.105 ± 0.037 | -0.038 ± 0.0071 | 0.039 ± 0.042 | 0.0135 ± 0.032 | 0.0165 ± 0.059 | 0.0375 ± 0.016 | 0.078 ± 0.0099 | 0.083 ± 0.057 | 0.0385 ± 0.033 | -0.0015 ± 0.064 | 0.02 ± 0.0085 | 0.0275 ± 0.026 | -0.0385 ± 0.0092 | -0.0795 ± 0.0035 | -0.038 ± 0.02 | -0.0175 ± 0.0078
